# Some entries share one result that the patent states for a list of compounds. At least one compound was matched to its structure with a doubt left.
# The chains behind the UniProt entries cited, without tags or fusion partners.
# UniProt P0AES4, whole entry: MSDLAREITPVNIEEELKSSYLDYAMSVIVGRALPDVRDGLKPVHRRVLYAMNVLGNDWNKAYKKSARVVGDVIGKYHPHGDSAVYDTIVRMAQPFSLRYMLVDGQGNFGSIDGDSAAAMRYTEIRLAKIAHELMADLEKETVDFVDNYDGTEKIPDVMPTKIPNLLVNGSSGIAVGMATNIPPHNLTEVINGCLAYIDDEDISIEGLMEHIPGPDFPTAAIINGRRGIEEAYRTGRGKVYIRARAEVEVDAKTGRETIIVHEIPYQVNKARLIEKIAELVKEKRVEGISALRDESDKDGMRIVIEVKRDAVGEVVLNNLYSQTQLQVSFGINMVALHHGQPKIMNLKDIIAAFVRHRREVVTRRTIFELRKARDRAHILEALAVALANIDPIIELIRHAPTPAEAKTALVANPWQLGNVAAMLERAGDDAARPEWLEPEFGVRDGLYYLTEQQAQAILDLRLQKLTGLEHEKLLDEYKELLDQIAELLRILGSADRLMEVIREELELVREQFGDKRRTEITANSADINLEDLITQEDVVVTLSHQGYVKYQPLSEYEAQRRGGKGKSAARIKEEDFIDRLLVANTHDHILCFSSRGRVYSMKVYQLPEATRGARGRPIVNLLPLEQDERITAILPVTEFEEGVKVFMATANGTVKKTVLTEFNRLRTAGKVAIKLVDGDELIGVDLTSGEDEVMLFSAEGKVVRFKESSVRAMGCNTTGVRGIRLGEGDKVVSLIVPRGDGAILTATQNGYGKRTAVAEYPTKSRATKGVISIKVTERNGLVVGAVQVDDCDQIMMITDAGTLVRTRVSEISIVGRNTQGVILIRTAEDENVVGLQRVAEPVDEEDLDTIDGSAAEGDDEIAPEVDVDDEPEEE
# Biological target: E. coli DNA gyrase (Escherichia coli, UniProt P0AES4+P0AES6)
# Format: biochemical
row,Compound,inhibition of both DNA gyrase and Topo IV (summary in words)
1,"O=c1cc(NCC(O)C2CCN(C[C@@H]3Cn4c(=O)ccc5ncc(=O)n3c54)CC2)c2cc(F)ccc2o1 (mixture of isomers) [Compound 343, (2R)-2-[(4-{2-[(6-fluoro-2-oxo-2H-1-benzopyran-4-yl)amino]-1-hydroxyethyl}piperidin-1-yl)methyl]-1,2-dihydro-3H,8H-2a,5,8a-triazaacenaphthylene-3,8-dione]",effectively inhibit both DNA gyrase and Topo IV
2,O=C1COc2ncc(F)cc2N1[C@H]1CC[C@H](NCc2cc3c(=O)oc4cccnc4c3[nH]2)CC1 [Compound 301],effectively inhibit both DNA gyrase and Topo IV
3,"COc1cnc2c(c1)N([C@H]1CC[C@H](NCc3cc4c(=O)oc5ccc(F)cc5c4[nH]3)CC1)C(=O)CO2 [Compound 302, 8-fluoro-2-({[trans-4-(7-methoxy-2-oxo-2,3-dihydro-1H-pyrido[2,3-b][1,4]oxazin-1-yl)cyclohexyl]amino}methyl)[1]benzopyrano[4,3-b]pyrrol-4(1H)-one]",effectively inhibit both DNA gyrase and Topo IV
4,"O=C1COc2ncc(F)cc2N1C1CCN(CC(O)CNc2cc(=O)oc3ccc(F)cc23)CC1 (stereo not drawn) [Compound 303, 7-fluoro-1-(1-{3-[(6-fluoro-2-oxo-2H-1-benzopyran-4-yl)amino]-2-hydroxypropyl}piperidin-4-yl)-1H-pyrido[2,3-b][1,4]oxazin-2(3H)-one]",effectively inhibit both DNA gyrase and Topo IV
5,"O=C1COc2ncc(F)cc2N1[C@H]1CC[C@H](NCc2cc3ncc4c(c3[nH]2)OCCO4)CC1 [Compound 314, 1-[trans-4-{[(2,3-dihydro-9H-[1,4]dioxino[2,3-d]pyrrolo[3,2-b]pyridin-8-yl)methyl]amino}cyclohexyl]-7-fluoro-1H-pyrido [2,3-b][1,4]oxazin-2(3H)-one]",effectively inhibit both DNA gyrase and Topo IV
6,"O=C1COc2ncc(F)cc2N1[C@H]1CC[C@H](NCCNc2cc(=O)oc3ccc(F)cc23)CC1 [Compound 354, 7-fluoro-1-[trans-4-({2-[(6-fluoro-2-oxo-2H-1-benzopyran-4-yl)amino]ethyl}amino)cyclohexyl]-1H-pyrido[2,3-b][1,4]oxazin-2(3H)-one]",effectively inhibit both DNA gyrase and Topo IV

# Reference: patent publication US10633366B2, “Antibacterial compounds” (AZIENDE CHIMICHE RIUNITE ANGELINI FRANCESCO A.C.R.A.F. …, priority 2016, dated 2020)
